# Experimental data published in US7011816B2, “Labeling targeting agents with gallium-68 and gallium-67” (Immunomedics, Inc., priority 2001, dated 2006).
# Part of at least one peptide drawing is inferred or uncertain, most often the ends. *1 amine or outer side, *2 acyl side, *3 side chain or, on linkers, in order; H or OH if unused. Where a SMILES comes first, the peptide text is derived from it. Side-chain parts run from the residue outwards. [ ]: non-standard residue; d: D form. The star is where a group is joined. X1 = O=C(O)CN1CCN(CC(=O)O)CC(Cc2ccc(NC(=S)*)cc2)N(CC(=O)O)CC1; NH(2-(imidazol-4-yl)ethyl) = c1ncc(CCN*)[nH]1; Suc = O=C(CCC(=O)[*:2])[*:1]
# What was measured:
# [1] = tested on: bispecific antibody (bsAb) hMN-14×679 F(ab′)2 [anti-CEA×anti-HSG]; experiment: Ga-68-IMP 244 and anti-HSG MAb complex formation by SE-HPLC; format: binding; details: 20-fold molar excess of bsAb; 0.2 M phosphate buffered saline, pH 7.2
# [2] = format: in vitro ADME; details: after 3h incubation in human serum; 20:1 molar excess of bsAb
compound,measurement,setting,value
"C[C@@H](NC(=S)Nc1ccc(CC2CN(CC(=O)O)CCN(CC(=O)O)CCN2CC(=O)O)cc1)C(=O)N[C@@H](CCCCNC(=O)CNC(=O)CCC(=O)NCCc1cnc[nH]1)C(=O)N[C@@H](Cc1ccc(O)cc1)C(=O)N[C@@H](CCCCNC(=O)CNC(=O)CCC(=O)NCCc1cnc[nH]1)C(N)=O (stereo partly drawn) [Ga-68-IMP 244, metal not drawn] (X1-[dA]K([Gly-Suc-NH(2-(imidazol-4-yl)ethyl)])YK([Gly-Suc-NH(2-(imidazol-4-yl)ethyl)])-NH2)",Complex formation with bsAb (shift of radioactivity on SE-HPLC),[1],near-quantitatively shifted
same,Binding to hMN-14×679 F(ab′)2 bsAb after serum incubation,[2],still functionally able to bind
